# These are yes or no findings as the source states them, for the method shown. Some results given as binding are weak or reduced against the parent protein; the word gives no strength.
# Sequences of proteins named here, by UniProt entry; tags and fusion partners are left off. A change or cut given only in a name is not applied to a line headed by its entry.
# UniProt P49862: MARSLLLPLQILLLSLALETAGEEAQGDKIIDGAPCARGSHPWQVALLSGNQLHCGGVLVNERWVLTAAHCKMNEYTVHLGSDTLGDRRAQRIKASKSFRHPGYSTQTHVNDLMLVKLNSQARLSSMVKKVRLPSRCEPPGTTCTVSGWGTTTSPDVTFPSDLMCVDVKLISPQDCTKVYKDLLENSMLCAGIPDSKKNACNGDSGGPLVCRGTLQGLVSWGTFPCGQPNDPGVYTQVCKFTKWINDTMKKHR
# Tests used:
# [1] = target: Recombinant KLK7 residues I30-R253 (SEQ ID NO: 4), crystallisation construct (human) (UniProt P49862); experiment: complex formation, size-exclusion chromatography
# [2] = target: Recombinant KLK7 residues I30-R253 (SEQ ID NO: 4), crystallisation construct (human) (UniProt P49862); experiment: X-ray crystal structure
binder,measurement,setting,value
"anti-KLK7 rb.14H11c Fab (Fab, V domains shown) VH: QSLEESGGDLVKPGASLTLTCTASGFSFSSSYYMSWVRQAPGKGLEWIASIYAGSSGAPYYAGWAKGRFTISKTSSTAVTLQMSSLTAADTATYFCAREGFAETGGYGYAAYFNLWGPGTLVTVSS VL: AIEMTQSPPSLSASVGETVRIRCLASEDIANSVSWYQQKPGKPPTLLIYGASNLESGVPPRFTGSGSGTDYTLTIGGVQAEDAATYYCLGGYSYSSTGTAFGAGTKVEINR",binding,[1],binds
same,binding,[2],binds

# Source: patent US20240084042A1
